The list is a part of this screen's results and no random one: it is rich in T/C values a quarter to a half above the control, in often repeated tests (any T/C) and in doses without a T/C. Other doses and runs of a compound stand elsewhere. T/C gives the treated animals as a percentage of the vehicle group. Some entries give survivors of the animals treated and no T/C: the source files T/C as zero there, which appears to mark a toxic dose or a test without result, not a measured value. Some survivor counts are full or nearly so, which does not show that the dose was tolerated: the source hardly ever lists a survival T/C far under the control, and the zero likely stands for such cases as well. Counts of survivors are from the toxicity check (mostly the fifth day) where no day follows; animals may have died later. Schedule codes are those of the source, read here as Q, the interval in days (D) or hours (H), X, the number of doses. Where survival is the endpoint, the PubChem record calls one and a half times the control and up active, and a quarter to a half above the control has no call in these data; cut-offs in other NCI protocols can differ.
Tested on: BDF1 mice, P388 leukemia ip, median survival T/C
Test: NCI In Vivo Anticancer Drug Screen. Data for tumor model P388 Leukemia (intraperitoneal) in B6D2F1 (BDF1) mice
Details: T/C endpoint: median survival time, schedule: Q01DX009 (ip), higher T/C = longer survival
In short: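 Antitumour effect was judged in vivo: survival in drug-treated mice, normalised to that of vehicle-dosed controls, gives the reported T/C.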

| Compound | survivor count (dose: 0.03 mg/kg/injection, vehicle: Klucel (hydroxypropylcellulose) (HPC)) | survivor count (dose: 25.0 micrograms/kg/injection, vehicle: gum acacia) | T/C (dose: 24.75 mg/kg/injection, vehicle: saline with Tween-80) | T/C (dose: 37.5 mg/kg/injection, vehicle: acetone) | T/C (dose: 37.5 mg/kg/injection, vehicle: saline with Tween-80) | T/C (dose: 56.25 mg/kg/injection, vehicle: saline with Tween-80) | T/C (dose: 75.0 mg/kg/injection, vehicle: acetone) | survivor count (dose: 150.0 mg/kg/injection, vehicle: acetone) |
| --- | --- | --- | --- | --- | --- | --- | --- | --- |
| CCCCCCCCCCCCCC(=O)O[C@@H]1[C@@H](C)[C@@]2(O)[C@@H](C=C(CO)C[C@]3(OC)C(=O)C(C)=C[C@@H]23)[C@@H]2C(C)(C)[C@]12OC(C)=O | 6 of 6 | 4 of 4 | – | – | – | – | – | – |
| C1#CCCCCCC#CCCCC1 | – | – | 127 % of control | 136 % of control | 136 % of control | 136 % of control | 131 % of control | 2 of 6 |

From PubChem BioAssay AID328 (DTP/NCI, 2004)
